{
  "sequences": {"note": "Sequences of proteins named here, by UniProt entry; tags and fusion partners are left off.", "UniProt Q9HGP5": "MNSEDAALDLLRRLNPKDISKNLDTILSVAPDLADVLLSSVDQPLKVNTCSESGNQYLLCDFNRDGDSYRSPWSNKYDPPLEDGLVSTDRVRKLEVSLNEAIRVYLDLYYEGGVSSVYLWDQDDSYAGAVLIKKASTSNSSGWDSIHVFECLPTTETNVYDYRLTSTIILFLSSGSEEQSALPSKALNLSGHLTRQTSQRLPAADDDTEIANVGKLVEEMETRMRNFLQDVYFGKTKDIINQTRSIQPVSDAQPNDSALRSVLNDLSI"},
  "source": "paper PMC4958305",
  "key": {"CAPZA^Acp1-AA (S. pombe)": {"biological_target": "T1, CAPZA^Acp1-AA (S. pombe) (UniProt Q10434)", "T1 sequence": "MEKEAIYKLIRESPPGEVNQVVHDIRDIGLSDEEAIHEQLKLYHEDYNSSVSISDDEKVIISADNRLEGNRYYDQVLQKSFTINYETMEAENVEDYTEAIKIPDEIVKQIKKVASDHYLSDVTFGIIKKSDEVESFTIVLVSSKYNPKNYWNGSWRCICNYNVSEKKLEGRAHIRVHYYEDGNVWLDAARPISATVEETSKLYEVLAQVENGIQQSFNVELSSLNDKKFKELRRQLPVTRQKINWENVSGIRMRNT", "test": "co-IP; anti-HA immunoprecipitation of Acp1–HA under non-denaturing conditions from S. pombe lysate, 1 hour at 4°C; anti-GFP blot for Acp2–GFP; cells treated with DMSO or Torin1 (25 µM); wild-type, TORC1^R and TORC2^R strains"}, "CAPZA^Acp1–HA (S. pombe)": {"biological_target": "T2, CAPZA^Acp1–HA (S. pombe) (UniProt Q10434)", "T2 sequence": "T1 sequence with A172S, A189S", "test": "co-IP; anti-HA immunoprecipitation of Acp1–HA under non-denaturing conditions from S. pombe lysate, 1 hour at 4°C; anti-GFP blot for Acp2–GFP; cells treated with DMSO or Torin1 (25 µM); wild-type, TORC1^R and TORC2^R strains"}},
  "note": "Where a chain is given by its changes, count along the chain named. These are yes or no findings as the source states them, for the method shown. In cells and extracts the contact can be indirect. Some entries that bind do so weakly or less than the wild type. For some assays here: Where a sequence is shown, tags or fusion partners need not be part of it.",
  "data": [
    {"substance": "CAPZB^Acp2–GFP (from UniProt Q9HGP5 1-268)", "values": [
      {"measurement": "binding", "setting": "CAPZA^Acp1-AA (S. pombe)", "result": "binds"},
      {"measurement": "binding", "setting": "CAPZA^Acp1–HA (S. pombe)", "result": "binds"}
    ]}
  ]
}
